Test results taken from the supplement of paper PMC3334620.
Over roughly 33,000 sequences, “E-score (-0.5 to 0.5)” has its median near -8e-05; the highest 2% begin near 0.23. This is one part of the list.

molecular target: T1, Nrg2 (UniProt P38082); assay: PBM E-score (8-mer binding enrichment) (E-score (-0.5 to 0.5)); higher = stronger / more preferred TF binding; details: protein concentration: 100 nM; construct: GST-full length
T1 sequence: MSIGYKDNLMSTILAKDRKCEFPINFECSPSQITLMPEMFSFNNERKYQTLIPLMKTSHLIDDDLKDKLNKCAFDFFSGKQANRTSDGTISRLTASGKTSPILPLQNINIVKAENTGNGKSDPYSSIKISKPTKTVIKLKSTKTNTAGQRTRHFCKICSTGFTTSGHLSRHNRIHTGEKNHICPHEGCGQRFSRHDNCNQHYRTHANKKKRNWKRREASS
Protocol: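 Universal 'all 10-mer' protein binding microarrays (Agilent AMADID 015681) probed with GST-tagged S. cerevisiae TFs (full-length or DBD) made by in vitro transcription/translation (PURExpress), about 100-200 nM. Bound TF was detected with fluorescent anti-GST. Each ungapped 8-mer (which stands for itself and its reverse complement) is scored by the PBM enrichment score (E-score), a modified Wilcoxon-Mann-Whitney statistic from -0.5 to +0.5, computed with the Universal PBM Analysis Suite. Scale: above 0.35 generally sequence-specific binding.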

Point of comparison: AGCCTCAG, “PBM E-score” value 0.0157. Against it:
- GCACTAGA — lower, -0.0716
- ATCAGAGC — higher, 0.0588
- CTAGCCCC — lower, -0.112
- AACGATAG — higher, 0.0288
- ATACGTTA — higher, 0.0888
- ACCCTCTA — lower, -0.0379
- ATCCGGAA — higher, 0.186
- AACGACAC — higher, 0.193
- ATAGTCCC — higher, 0.0788
- CATCTTTA — lower, -0.125
- AAAATTAT — higher, 0.206
- AACTGCGT — lower, -0.135
- ACATGGAT — lower, -0.0502
- ATCTTCAT — higher, 0.084
- CTTGTTTC — lower, 0.0127
- GATGAACA — lower, -0.00497
- ACGGGCAG — higher, 0.0319
- CCACAGTA — lower, 0.00416
- GAGATTAA — higher, 0.0859
- ATTTGTTA — higher, 0.113
- AGAGGCTC — lower, -0.273
- CATTAATG — higher, 0.0471
- GGGACTAC — higher, 0.0857
- CTGATTAA — higher, 0.114
- CTTTTCAC — higher, 0.0908
- AATATGCC — lower, -0.0331
- CTTGGTAC — higher, 0.121
- CAGTAATA — higher, 0.161
- CGAGCGGA — lower, -0.205
- CAATGCAC — higher, 0.0917
- GAGGGCGC — lower, -0.117
- CATAGATG — lower, -0.155
- GGAGAGCA — lower, -0.186
- GACGCAGA — higher, 0.152
- GGAAGGAC — lower, -0.193
- GAGTTAAA — lower, -0.0372
- AATCGTTC — higher, 0.0566
- ATCTGAAG — lower, -0.106
- AAGTACAG — higher, 0.0525
- AGTTGATG — higher, 0.0887
- CCTGGGTC — lower, -0.0664
- CGCAGCAA — lower, -0.0726
- AAATTGCT — lower, -0.0593
- ATCCCAAG — lower, -0.141
- GGGCGCTA — lower, -0.206
- ACCCACAC — higher, 0.0599
- TGTCTAAA — higher, 0.0915
- ATCTTATC — higher, 0.0921
- CGTCCAAG — lower, -0.158
- ACCCGCGA — higher, 0.174
- AGATGTCG — higher, 0.0587
- AACTCGGG — lower, -0.0267
- CCTAAGAC — lower, -0.165
- AGGCGGCA — lower, -0.257
- GGCAACCC — lower, -0.132
- CATGGTCG — lower, -0.0584
- AACACATT — higher, 0.161
- CAACACTA — higher, 0.147
- ACTATGCT — higher, 0.058
- GAAATGGA — higher, 0.06
- AGTTGTCG — higher, 0.155
- TTAAATAA — higher, 0.186
- ACAAGGCG — lower, 0.0141
- TCGCGCAA — higher, 0.0928
- ATCCGTAA — lower, -0.136
- CGTGGAGC — lower, -0.0607
- CAGGAATG — lower, -0.0903
- CGCGCCTA — higher, 0.0636
- GAGCAGAA — lower, -0.05
- TGAGTAAA — higher, 0.159
- GGATAGGA — lower, -0.0321
- ACTTGGAT — higher, 0.069
- AAAAAAAT — higher, 0.14
- GAAAACGA — higher, 0.0248
- CTCAGAGC — lower, -0.145
- TGGTAACA — lower, -0.0489
- AGAGTAGC — lower, -0.189
- AAATTACC — higher, 0.0708
- GAGAAAAC — higher, 0.0966
- ATAATTGG — higher, 0.128
- ATATGAAA — higher, 0.197
- AATATAGT — higher, 0.206
- TCCGACCA — lower, -0.0775
- CTGCAGTC — lower, -0.108
- TATCAGAA — higher, 0.0656
- ATGAGTTC — lower, -0.0453
- AGACTATG — lower, -0.111
- ATAACCGG — lower, -0.104
- GTATTATA — higher, 0.254
- ACCGCGAT — higher, 0.097
- AAGATCCC — higher, 0.132
- AGGCGATC — lower, -0.106
- GGATGAGA — lower, -0.0943
- ATTGGTGA — lower, 0.0148
- CGTGGTGC — lower, -0.232
- ATTACACA — higher, 0.0862
- CCACATGC — higher, 0.149
- GAGTTCAA — higher, 0.0393
- CGGTTTGC — lower, -0.0375
- AAAGATTG — lower, -0.0435
- ACTTAGGG — higher, 0.0512
- GGGCGGCA — lower, -0.163
- CTGAATCC — higher, 0.0803
- CCGAGCGG — lower, -0.165
- AGGAATCG — higher, 0.057
- CATGGTGC — lower, -0.0905
- GTCATTTA — higher, 0.016
- AGGGTTTG — higher, 0.172
- CACCGCGC — lower, -0.0311
- AAGTTTAG — lower, -0.0161
- ATCACACG — lower, -0.0408
- ATTCTGAA — higher, 0.0558
- CGGTTTGA — lower, -0.0448
- CAGGAGCA — lower, -0.0471
- GCGGCCGA — higher, 0.0944
- CATCGTCC — higher, 0.0229
- AAGACTGC — lower, -0.221
- AGCGACTG — lower, -0.168
- TAAATAGA — lower, -0.125
- ACACAGCA — higher, 0.0931
- AACAGCAG — higher, 0.0762
- AGATGCAA — higher, 0.0554
- AACAGACA — higher, 0.225
- CAATTCCG — higher, 0.135
- GACAGACC — higher, 0.0299
- AGATTCTC — lower, -0.0109
- CTGATCAG — higher, 0.0207
- AACAATAG — lower, -0.124
- GCACTTGA — lower, 0.00018
- CGTATCAA — lower, -0.0136
- ATCACGAC — lower, -0.0381
- TGATTCCA — lower, -0.0557
- ATGCGCTC — lower, -0.0254
- ACACCTTA — higher, 0.0638
- CACATGTC — lower, -0.0919
- AATGCAGG — higher, 0.0903
- ATTGTCGA — higher, 0.0199
- ACATAAGA — higher, 0.0974
- ATGCGCCG — higher, 0.0667
- ACTACGAT — higher, 0.0855
- CAGGAGCC — lower, -0.276
- AGTGCGCA — higher, 0.135
- AGGTTGGC — lower, -0.0231
- GTGGCACA — lower, -0.167
- AGTGTACC — lower, -0.0931
- CTTTTTTC — lower, -0.0316
- CTGGTTCC — higher, 0.158
- GCCGGCGC — higher, 0.0423
- TAGCCCGA — lower, -0.049
- CCGATGAA — higher, 0.0696
- GATCCTGC — higher, 0.0394
- AGAGTCCT — lower, -0.126
- GACCCAGA — higher, 0.0516
- CACTTATG — higher, 0.0308
- TACTGCCA — higher, 0.067
- CCCGAAGC — lower, -0.0863
- TCTTCTCA — lower, -0.0396
- CGCGGGAG — lower, -0.0164
- GCGCCAAC — higher, 0.0893
- ATTAAAAC — higher, 0.241
- ACCAGAGT — lower, -0.219
- ATTGAATC — lower, -0.00839
- AGAGAAGG — lower, -0.0745
- AGACTAAG — lower, -0.00848
- ATTTCACG — higher, 0.0656
- GAGCTTGA — lower, -0.107
- CGGAACCC — higher, 0.146
- ACCTGCTA — lower, 0.00127
- AGTTGAGG — lower, 0.00192
- ACTTATCC — lower, -0.0934
- AAGGTTTC — lower, -0.0346
